PubChem BioAssay AID1259425, University of Nebraska Medical Center | 2018
Purpose: 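Seek colon cancer weak points whose silencing resembles KSR1 loss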 (primary screen). Cells: HCT116 human colon cancer cells. Reagents: siRNA pool against human genes, 50 nM siRNA. Detection: 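After 50 nM siRNA pool, branched-DNA assay measures six marker transcripts per well, minus blank, normalised to the geometric mean of two housekeeping transcripts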. Scale: BNIP3L mRNA: higher = more BNIP3L transcript after knockdown; NDRG1 mRNA: higher = more NDRG1 transcript after knockdown.
In all, the deposit lists about 14,000 reagents; below is a random part of them. Further read-outs or replicates are left out here. The record does not give: the time to read-out.

After knock-down of CMSS1, the screen gave BNIP3L mRNA, set 1 = 0.221; NDRG1 mRNA, set 1 = 0.205. With knock-down of CDKN1B, the screen gave BNIP3L mRNA, set 1 = 0.0895; NDRG1 mRNA, set 1 = 0.0347. After knock-down of CSNK1G3 the results were BNIP3L mRNA, set 1 = 0.0628; NDRG1 mRNA, set 1 = 0.0413. For DAG1, the values are BNIP3L mRNA, set 1 = 0.0861; NDRG1 mRNA, set 1 = 0.114. STARD5 scored BNIP3L mRNA, set 1 = 0.166; NDRG1 mRNA, set 1 = 0.353. IL36B showed BNIP3L mRNA, set 1 = 0.106; NDRG1 mRNA, set 1 = 0.0986.

After knock-down of PTS the results were BNIP3L mRNA, set 1 = 0.124; NDRG1 mRNA, set 1 = 0.195. Knock-down of UGT2B15 gave: BNIP3L mRNA, set 1 = 0.0835; NDRG1 mRNA, set 1 = 0.121. For GPATCH2L, the entry reads BNIP3L mRNA, set 1 = 0.117; NDRG1 mRNA, set 1 = 0.342. After knock-down of ANO8 the results were BNIP3L mRNA, set 1 = 0.997; NDRG1 mRNA, set 1 = 3.72. PTPRK gave BNIP3L mRNA, set 1 = 0.0673; NDRG1 mRNA, set 1 = 0.0971. For NT5C2, the values are BNIP3L mRNA, set 1 = 0.112; NDRG1 mRNA, set 1 = 0.126.

For CAPRIN2, the values are BNIP3L mRNA, set 1 = 0.139; NDRG1 mRNA, set 1 = 0.256. IL22 showed BNIP3L mRNA, set 1 = 0.161; NDRG1 mRNA, set 1 = 0.202. For HCRT the deposit lists BNIP3L mRNA, set 1 = 0.125; NDRG1 mRNA, set 1 = 0.112. Silencing of SKI came out at: BNIP3L mRNA, set 1 = 0.088; NDRG1 mRNA, set 1 = 0.185. With knock-down of HECTD3 the results were BNIP3L mRNA, set 1 = 0.316; NDRG1 mRNA, set 1 = 0.589. Against NUDC, the entry reads BNIP3L mRNA, set 1 = 0.113; NDRG1 mRNA, set 1 = 0.245.

Knock-down of IL24 resulted in: BNIP3L mRNA, set 1 = 0.065; NDRG1 mRNA, set 1 = 0.199. Against UBE2G1, the entry reads BNIP3L mRNA, set 1 = 0.0903; NDRG1 mRNA, set 1 = 0.071.

Limited to “NDRG1 mRNA, set 1” (3 entries from above):
PTPRK: 0.0971
NT5C2: 0.126
CAPRIN2: 0.256

The results go on.
After knock-down of FCGRT the results were BNIP3L mRNA, set 1 = 0.0834; NDRG1 mRNA, set 1 = 0.0812. After knock-down of REEP4, the record shows BNIP3L mRNA, set 1 = 0.0507; NDRG1 mRNA, set 1 = 0.246. Against CA8, the values are BNIP3L mRNA, set 1 = 0.102; NDRG1 mRNA, set 1 = 0.346. Against MDH1, the entry reads BNIP3L mRNA, set 1 = 0.101; NDRG1 mRNA, set 1 = 0.0819. With knock-down of GNB4, the screen gave BNIP3L mRNA, set 1 = 0.103; NDRG1 mRNA, set 1 = 0.3. After knock-down of WSCD1 the results were BNIP3L mRNA, set 1 = 0.0687; NDRG1 mRNA, set 1 = 0.1.

Silencing of ADCY6 resulted in: BNIP3L mRNA, set 1 = 0.0798; NDRG1 mRNA, set 1 = 0.243. Depletion of COIL gave: BNIP3L mRNA, set 1 = 0.0818; NDRG1 mRNA, set 1 = 0.161. For KRT4 the deposit lists BNIP3L mRNA, set 1 = 0.0896; NDRG1 mRNA, set 1 = 0.152. Knock-down of ZNF397 gave: BNIP3L mRNA, set 1 = 0.137; NDRG1 mRNA, set 1 = 0.147. EGLN1 showed BNIP3L mRNA, set 1 = 0.266; NDRG1 mRNA, set 1 = 0.114. After knock-down of EIF2B3, the screen gave BNIP3L mRNA, set 1 = 0.143; NDRG1 mRNA, set 1 = 0.191.

FBXO40 gave BNIP3L mRNA, set 1 = 0.125; NDRG1 mRNA, set 1 = 0.193. Silencing of POLR3C came out at: BNIP3L mRNA, set 1 = 0.0595; NDRG1 mRNA, set 1 = 0.269. Against UNC93B1, the values are BNIP3L mRNA, set 1 = 0.133; NDRG1 mRNA, set 1 = 0.148. Depletion of APBB1 came out at: BNIP3L mRNA, set 1 = 0.192; NDRG1 mRNA, set 1 = 0.268.
